For assay [1], the target named is endogenous SERCA2 of HeLa cells (human (endogenous in HeLa)) (UniProt P16615). As to the kind of experiment: co-IP.
For assay [2], the target named is T1, human another-regulin (ALN), N-terminally labelled with eGFP or mCherry (human) (UniProt Q8WVX3).
T1 sequence: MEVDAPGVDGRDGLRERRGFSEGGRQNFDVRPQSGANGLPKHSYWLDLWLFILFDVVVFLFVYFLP
As to the kind of experiment: FRET or BRET.

The chains behind the UniProt entries cited, without tags or fusion partners.
UniProt P16615: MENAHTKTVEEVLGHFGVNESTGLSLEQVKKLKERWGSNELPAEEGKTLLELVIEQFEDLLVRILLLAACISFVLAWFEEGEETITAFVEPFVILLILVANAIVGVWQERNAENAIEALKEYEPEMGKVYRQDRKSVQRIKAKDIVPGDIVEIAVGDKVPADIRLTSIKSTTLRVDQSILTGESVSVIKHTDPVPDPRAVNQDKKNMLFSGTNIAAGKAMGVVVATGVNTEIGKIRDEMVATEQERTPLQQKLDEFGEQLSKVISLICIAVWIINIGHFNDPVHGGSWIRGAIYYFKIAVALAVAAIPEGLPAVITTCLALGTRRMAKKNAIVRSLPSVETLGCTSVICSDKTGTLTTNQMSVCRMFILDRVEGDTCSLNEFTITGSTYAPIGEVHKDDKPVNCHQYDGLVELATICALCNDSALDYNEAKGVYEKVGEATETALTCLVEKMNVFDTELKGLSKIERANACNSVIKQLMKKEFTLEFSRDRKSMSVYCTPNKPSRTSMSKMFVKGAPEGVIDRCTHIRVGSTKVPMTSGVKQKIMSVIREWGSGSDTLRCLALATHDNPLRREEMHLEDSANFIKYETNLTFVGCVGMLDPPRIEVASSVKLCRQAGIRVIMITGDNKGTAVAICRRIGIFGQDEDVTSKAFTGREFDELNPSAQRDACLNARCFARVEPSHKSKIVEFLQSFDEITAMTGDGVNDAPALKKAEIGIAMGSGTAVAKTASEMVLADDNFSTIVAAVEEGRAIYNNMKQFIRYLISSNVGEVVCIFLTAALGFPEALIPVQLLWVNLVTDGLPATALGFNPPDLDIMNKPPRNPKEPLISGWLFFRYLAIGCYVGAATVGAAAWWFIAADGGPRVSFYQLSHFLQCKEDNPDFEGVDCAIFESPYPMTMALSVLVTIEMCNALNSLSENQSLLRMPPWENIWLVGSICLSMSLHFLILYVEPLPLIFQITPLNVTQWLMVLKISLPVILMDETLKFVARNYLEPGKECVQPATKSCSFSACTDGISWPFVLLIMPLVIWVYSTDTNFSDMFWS
UniProt P0DI80: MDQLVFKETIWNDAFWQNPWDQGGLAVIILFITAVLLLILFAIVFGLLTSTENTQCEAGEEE
UniProt P26678: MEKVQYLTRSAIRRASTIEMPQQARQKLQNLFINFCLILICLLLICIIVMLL
UniProt P0DTC4: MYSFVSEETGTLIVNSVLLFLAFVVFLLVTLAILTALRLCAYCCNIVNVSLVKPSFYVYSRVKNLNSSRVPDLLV

Assay [3] deals with human endoregulin (ELN), N-terminally labelled with eGFP or mCherry (human) (UniProt P0DI80). As to the kind of experiment: FRET or BRET. A general note: BRET reads energy transfer from a luciferase to a nearby fluorophore.
For assay [4], the target named is human phospholamban, N-terminally (cytosolic side) labelled with eGFP or mCherry (human) (UniProt P26678). As to the kind of experiment: FRET or BRET.
In assay [5] the target is human endoregulin (ELN), N-terminally labelled with eGFP or mCherry (human) (UniProt P0DI80). As to the kind of experiment: FRET or BRET; […] region of interest within the ER; FRET efficiency by FRETcalc.
The target of assay [6] is T1, human another-regulin (ALN), N-terminally labelled with eGFP or mCherry (human). As to the kind of experiment: FRET or BRET; […] donor eGFP, acceptor mCherry; region of interest within the ER; FRET efficiency by FRETcalc.
Assay [7] addresses human endoregulin (ELN), N-terminally labelled with eGFP or mCherry (human) (UniProt P0DI80). Described as above.
Assay [8] deals with human phospholamban, N-terminally (cytosolic side) labelled with eGFP or mCherry (human) (UniProt P26678). The description is as above.

These are yes or no findings as the source states them, for the method shown. Binding seen in cells or lysates may run through a third protein. Some results given as binding are weak or reduced against the parent protein; the word gives no strength. For some of these results: Tags and fused reporters may be left off the sequences shown.

For “SARS-CoV-2 envelope (E) protein, N-terminally labelled with eGFP or mCherry (from UniProt P0DTC4 1-75)”, the binding entry in assay [1], in assay [2], in assay [3] and in assay [4] was “binds” each time.

For the molecule “human endoregulin (ELN), N-terminally labelled with eGFP or mCherry (from UniProt P0DI80 1-62)”, in assay [5], the binding result is “binds”.

“human phospholamban, N-terminally (cytosolic side) labelled with eGFP or mCherry (from UniProt P26678 1-52)”: the binding result in assay [6], in assay [7] and in assay [8] was “binds” throughout.

B1: human another-regulin (ALN), N-terminally labelled with eGFP or mCherry (protein, UniProt Q8WVX3-1 1-66)
chain: MEVDAPGVDGRDGLRERRGFSEGGRQNFDVRPQSGANGLPKHSYWLDLWLFILFDVVVFLFVYFLP
In the case of B1, the binding result in assay [6] and in assay [7] was “binds” throughout.

Values taken from publication PMC11391011.
